In PubChem BioAssay AID504467 (National Center for Advancing Translational Sciences (NCATS), 2011):
In all, about 330,000 compounds went through this assay and about 7,700 (2.3%) were called active. The shares of active, inactive and inconclusive entries below differ from those in the screen. Calls follow the shape of the dose curve; as a rule, active = well fitted inhibition curve with a large enough effect; inconclusive = small, poorly fitted or top-dose-only effect, or effect the other way; inactive = flat fitted curve, though single readings scatter. Potencies beside an inconclusive call are fits to weak or partial responses and may not hold up.

assay: qHTS screen for small molecules that inhibit ELG1-dependent DNA repair in human embryonic kidney (HEK293T) cells expressing luciferase-tagged ELG1; details: HEK293T ELG1-luciferase reporter, luminescence, 16 h, DNA damage induced by 5-fluorouridine; series mostly up to 46.1 µM; also: nearly all actives have a fitted effect of over 55% in size
Outline: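 Cells (2,000 per well) received 5-fluorouridine plus test compound or DMSO and were incubated 16 hr at 37 °C, 5% CO2. Luciferase activity was read by luminescence 30 min after ONE-Glo addition; signal suppression marked inhibition of damage-induced ELG1 function.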
Potency is read from the fitted curve at half-maximal effect.

Structure (SMILES) | Potency
COc1nccnc1NS(=O)(=O)c1ccc(NC(=S)NC(=O)/C=C/c2ccc(F)cc2)cc1 | inconclusive: 13 µM [activator, partial curve, poor fit]
Cc1cccc(C(=O)N/N=C/c2ccc(OC3CSC3)cc2)c1 | inconclusive: 18.4 µM [activator, single point]
CC(=O)Nc1ccc(Nc2ncnc3c2cnn3-c2cccc(C)c2)cc1 | inconclusive: 5.8 µM [activator, full curve]
COc1cc(/C=N/n2cnn(Cc3ccccc3Cl)c2=S)cc(OC)c1OC | active: 23.1 µM
COc1ccc(C(O)(CCC(C)C)C(CN2CCOCC2)c2ccccc2)cc1 (centres undefined) | inconclusive: 9.2 µM [inhibitor, partial curve, poor fit]
CCOc1ccccc1C(=O)NCC(=O)NNC(=O)CN(C)S(=O)(=O)c1ccc(Cl)cc1 | inconclusive: 18.3 µM [inhibitor, single point]
C=C(C)CN(CC)C(=O)c1ccc(OC2CCN(S(=O)(=O)N(C)C)CC2)cc1 | inconclusive: 29.1 µM [inhibitor, single point]
Cc1ccc(S(=O)(=O)NCCC(=O)NC2CCN(Cc3ccccc3)CC2)cc1 | inconclusive: 10 µM [inhibitor, single point]
CCOc1cc(C)nc(NCc2ccccc2)n1 | inactive
Cc1cccc(OCCCN2CCOCC2)c1 | inactive
O=C(Nc1cccc(S(=O)(=O)NC2=NCCC2)c1)c1ccc(C(F)(F)F)cc1 | inconclusive: 4.61 µM [inhibitor, partial curve]
CCCN1C(=O)C(=O)N(CC(=O)c2cc(C)n(C3CC3)c2C)C1=O | inconclusive: 18.3 µM [activator, partial curve]
O=C(NCc1ccco1)C1CCN(c2nc3ccccc3n2Cc2ccc(F)cc2)CC1 | active: 18.4 µM
CCC1Nc2ncnc(N3CCc4ccccc4C3)c2N(Cc2ccc(Cl)cc2)C1=O (centres undefined) | inconclusive: 29.1 µM [inhibitor, single point]
CCOC(=O)C1(CCOc2ccccc2)CCN(Cc2cnc(C)s2)CC1 | inactive
COc1ccccc1CCNC(=O)c1cnn2c(C(F)F)cc(C)nc12 | inactive
CC(C)C(=O)Nc1ccc(NC(=S)NC(=O)c2cc3ccccc3o2)cc1 | inconclusive: 3.26 µM [inhibitor, single point]
Cc1ccc(NS(=O)(=O)c2ccc(CCC(=O)N3CCCC3)cc2)cc1 | inconclusive: 7.3 µM [inhibitor, partial curve, poor fit]
COc1ccc(-c2nn(C)c3sc(C(=O)NCCN(C)C)cc23)cc1OC | inconclusive: 20.6 µM [activator, partial curve]
CCc1ccc2c(CC(=O)Nc3nnc(C4CC4)s3)coc2c1 | inconclusive: 25.9 µM [activator, single point]
Cc1ccccc1-c1nnc(SCc2ccc(F)cc2)o1 | inconclusive: 18.4 µM [activator, partial curve, poor fit]
CCOC(=O)c1sc(NC(=O)c2sc(C)nc2C)nc1C | inconclusive: 20.6 µM [activator, single point]

Structure (SMILES) | Potency
CC(=O)c1cccc(NC(=O)Nc2ccc3c(c2)OCO3)c1 | inconclusive: 3.66 µM [activator, partial curve]
COc1ccccc1-c1cn[nH]c1-c1ccc(OCc2ccc(F)cc2)cc1O | inconclusive: 16.4 µM [inhibitor, partial curve]
CCN(CC)S(=O)(=O)c1cccc(NC(=O)CCNC(=O)c2ccc([N+](=O)[O-])cc2)c1 | inactive
CCCC1CCc2c(sc(NC(=O)OCC)c2C#N)C1 (centres undefined) | inconclusive: 6.51 µM [inhibitor, single point]
C#Cc1ccc(C(=O)Nc2ccc(N3CCC(C)CC3)c(C(N)=O)c2)cc1 | inactive
O=C(NCc1ccc(Cl)cc1)C1CCN(S(=O)(=O)N2CCOCC2)CC1 | inactive
CCN(CC)C(=O)CSc1nnc(-n2nc(C)cc2C)c2ccccc12 | inconclusive: 0.708 µM [inhibitor, partial curve, poor fit]
Cn1c(=O)n(C)c2cc([N+](=O)[O-])c(N3CCN(CCO)CC3)cc21 | inactive
CCCOc1ccc(S(=O)(=O)n2cc(F)c(=O)[nH]c2=O)cc1 | inconclusive: 16.4 µM [inhibitor, single point]
O=C(NC(=S)NCCN1CCOCC1)c1ccc(Cl)cc1Cl | inconclusive: 13 µM [activator, partial curve, poor fit]
O=S(=O)(NCCN1CCOCC1)c1cc(Cl)ccc1Cl | inconclusive: 5.01 µM [inhibitor, single point]
C[C@H](CO)N1C[C@H](C)[C@@H](CN(C)CC2CCCCC2)Oc2c(NS(=O)(=O)c3ccccc3)cccc2C1=O | inconclusive: 23.1 µM [activator, partial curve, poor fit]
O=S(=O)(c1ccccc1OC(F)(F)F)N1CCN(c2ccnc3cc(Cl)ccc23)CC1 | active: 20.6 µM
CCOC(=O)c1cccc(NC(=O)CSc2nc3ccccc3c(=O)n2CC)c1 | inactive
CCN(CCCNC(=O)c1[nH]c(C)c(C(C)=O)c1C)c1ccccc1 | inconclusive: 29.1 µM [inhibitor, single point]
COCCNC(=S)N1CCc2cc(OC)c(OC)cc2C1c1cccs1 (centres undefined) | inconclusive: 2.06 µM [activator, partial curve]
O=C(NCC(=O)N1CCN(c2ccccc2)CC1)c1ccc(Cl)cc1 | inactive
COc1ccc(S(=O)(=O)N2CCC(c3cc(-c4cccc5ccccc45)n[nH]3)CC2)cc1 | inactive
O=C(/C=C/c1ccc(O)cc1)c1ccc(NC2=C(N3CCCCC3)C(=O)c3ccccc3C2=O)cc1 | inactive
CN(CC(=O)NC1CCCCCC1)S(=O)(=O)c1ccccc1 | inconclusive: 29.1 µM [activator, partial curve, poor fit]
COc1ccc2cc3cc(C(=O)NC(C)C)oc3nc2c1 | inconclusive: 2.59 µM [activator, partial curve]
CCCCCc1nc2c(=O)[nH]c3ccccc3c2o1 | inconclusive: 6.51 µM [activator, single point]

Random excerpt: 2 compounds from above, in no set order.
Structure (SMILES) | Potency
Cc1cccc(OCCCN2CCOCC2)c1 | inactive
O=C(/C=C/c1ccc(O)cc1)c1ccc(NC2=C(N3CCCCC3)C(=O)c3ccccc3C2=O)cc1 | inactive
